Experimental data as given in the supplement of paper PMC11732987, “Enantioselective OTUD7B fragment discovery through chemoproteomics screening and high-throughput optimisation” (Communications Chemistry, 2025).
Some of the results follow. The data scatter; read single values as rough.

Chains of the proteins cited; added tags and fusions are not shown. Lines headed by an entry give the natural chain unless they say otherwise; changes in a name come on top.
UniProt P49792: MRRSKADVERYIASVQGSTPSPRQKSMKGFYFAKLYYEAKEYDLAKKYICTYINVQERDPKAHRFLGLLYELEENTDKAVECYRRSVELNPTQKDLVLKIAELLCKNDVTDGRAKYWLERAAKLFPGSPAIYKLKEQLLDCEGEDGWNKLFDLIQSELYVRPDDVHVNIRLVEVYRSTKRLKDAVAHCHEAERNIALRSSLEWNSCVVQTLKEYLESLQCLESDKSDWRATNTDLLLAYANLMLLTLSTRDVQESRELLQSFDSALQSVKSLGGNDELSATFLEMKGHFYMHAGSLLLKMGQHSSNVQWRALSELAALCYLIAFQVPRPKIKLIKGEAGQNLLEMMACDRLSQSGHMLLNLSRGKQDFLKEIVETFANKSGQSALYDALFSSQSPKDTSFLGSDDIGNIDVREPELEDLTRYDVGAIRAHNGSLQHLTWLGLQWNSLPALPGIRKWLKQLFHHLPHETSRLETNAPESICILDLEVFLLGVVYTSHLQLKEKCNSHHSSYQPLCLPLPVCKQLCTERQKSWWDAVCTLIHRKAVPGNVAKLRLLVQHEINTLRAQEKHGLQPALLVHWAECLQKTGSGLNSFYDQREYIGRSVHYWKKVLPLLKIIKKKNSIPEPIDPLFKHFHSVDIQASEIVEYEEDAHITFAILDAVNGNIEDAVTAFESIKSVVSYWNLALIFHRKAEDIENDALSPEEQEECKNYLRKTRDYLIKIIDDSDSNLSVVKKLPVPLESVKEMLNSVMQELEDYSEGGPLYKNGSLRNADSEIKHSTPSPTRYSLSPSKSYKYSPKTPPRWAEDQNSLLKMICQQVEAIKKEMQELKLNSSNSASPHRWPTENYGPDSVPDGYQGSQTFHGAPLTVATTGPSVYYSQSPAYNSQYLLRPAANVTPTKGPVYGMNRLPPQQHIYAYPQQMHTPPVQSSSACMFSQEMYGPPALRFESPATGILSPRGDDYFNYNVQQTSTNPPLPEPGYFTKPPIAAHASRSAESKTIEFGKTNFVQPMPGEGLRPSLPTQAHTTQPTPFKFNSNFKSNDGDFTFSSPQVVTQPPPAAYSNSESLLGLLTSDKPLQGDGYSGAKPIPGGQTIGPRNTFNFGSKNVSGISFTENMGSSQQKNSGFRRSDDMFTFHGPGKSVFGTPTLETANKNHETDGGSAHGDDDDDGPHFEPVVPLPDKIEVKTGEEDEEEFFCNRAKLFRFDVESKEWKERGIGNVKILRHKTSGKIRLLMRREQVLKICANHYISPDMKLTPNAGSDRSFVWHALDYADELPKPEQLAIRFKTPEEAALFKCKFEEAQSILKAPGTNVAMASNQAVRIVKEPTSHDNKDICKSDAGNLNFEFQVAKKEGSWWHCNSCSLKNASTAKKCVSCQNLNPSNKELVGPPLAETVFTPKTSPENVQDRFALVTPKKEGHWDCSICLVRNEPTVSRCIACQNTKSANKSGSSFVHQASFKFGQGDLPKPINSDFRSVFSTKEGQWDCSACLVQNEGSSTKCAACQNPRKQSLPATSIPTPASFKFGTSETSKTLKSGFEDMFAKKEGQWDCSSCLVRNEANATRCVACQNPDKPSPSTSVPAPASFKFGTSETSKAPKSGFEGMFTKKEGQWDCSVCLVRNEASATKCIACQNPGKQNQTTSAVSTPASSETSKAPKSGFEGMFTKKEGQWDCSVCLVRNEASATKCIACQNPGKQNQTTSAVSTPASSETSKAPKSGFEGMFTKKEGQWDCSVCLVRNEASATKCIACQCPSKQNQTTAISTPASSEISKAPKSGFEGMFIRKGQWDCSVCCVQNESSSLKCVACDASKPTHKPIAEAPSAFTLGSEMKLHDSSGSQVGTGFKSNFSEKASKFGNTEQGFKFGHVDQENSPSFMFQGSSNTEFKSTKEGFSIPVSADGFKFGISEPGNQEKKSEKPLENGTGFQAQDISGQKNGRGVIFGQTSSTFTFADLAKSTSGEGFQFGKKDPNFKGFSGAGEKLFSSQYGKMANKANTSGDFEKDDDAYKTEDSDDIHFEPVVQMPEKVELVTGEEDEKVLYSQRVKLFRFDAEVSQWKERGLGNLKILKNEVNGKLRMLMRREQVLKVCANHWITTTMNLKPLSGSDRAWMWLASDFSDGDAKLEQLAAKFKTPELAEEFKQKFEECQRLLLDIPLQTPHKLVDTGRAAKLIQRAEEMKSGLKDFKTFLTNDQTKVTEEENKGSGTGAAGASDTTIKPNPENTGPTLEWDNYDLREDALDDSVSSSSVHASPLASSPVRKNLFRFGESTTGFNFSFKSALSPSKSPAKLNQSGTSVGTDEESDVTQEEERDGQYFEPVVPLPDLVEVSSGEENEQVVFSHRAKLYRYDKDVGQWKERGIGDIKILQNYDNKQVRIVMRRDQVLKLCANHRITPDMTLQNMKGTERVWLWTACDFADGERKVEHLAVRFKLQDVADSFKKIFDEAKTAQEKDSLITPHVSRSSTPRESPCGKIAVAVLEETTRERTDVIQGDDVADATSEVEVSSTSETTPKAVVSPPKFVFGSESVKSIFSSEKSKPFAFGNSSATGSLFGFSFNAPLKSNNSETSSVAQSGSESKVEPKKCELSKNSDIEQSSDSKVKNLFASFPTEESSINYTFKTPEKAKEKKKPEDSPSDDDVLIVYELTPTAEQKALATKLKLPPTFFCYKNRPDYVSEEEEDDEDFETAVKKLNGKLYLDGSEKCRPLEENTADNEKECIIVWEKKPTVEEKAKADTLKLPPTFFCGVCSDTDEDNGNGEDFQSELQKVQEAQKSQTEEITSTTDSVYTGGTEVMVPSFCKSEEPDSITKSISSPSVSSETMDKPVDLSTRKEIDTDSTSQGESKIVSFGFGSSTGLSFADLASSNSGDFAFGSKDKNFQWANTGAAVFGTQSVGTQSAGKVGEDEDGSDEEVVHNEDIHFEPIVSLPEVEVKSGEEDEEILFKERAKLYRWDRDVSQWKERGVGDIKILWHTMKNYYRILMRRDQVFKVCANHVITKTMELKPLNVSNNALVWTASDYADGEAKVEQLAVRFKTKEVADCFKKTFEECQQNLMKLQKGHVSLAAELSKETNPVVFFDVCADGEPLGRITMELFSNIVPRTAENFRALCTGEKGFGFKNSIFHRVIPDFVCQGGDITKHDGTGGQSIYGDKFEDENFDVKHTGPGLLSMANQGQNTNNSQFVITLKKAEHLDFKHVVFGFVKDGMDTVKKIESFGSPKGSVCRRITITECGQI
UniProt P17081: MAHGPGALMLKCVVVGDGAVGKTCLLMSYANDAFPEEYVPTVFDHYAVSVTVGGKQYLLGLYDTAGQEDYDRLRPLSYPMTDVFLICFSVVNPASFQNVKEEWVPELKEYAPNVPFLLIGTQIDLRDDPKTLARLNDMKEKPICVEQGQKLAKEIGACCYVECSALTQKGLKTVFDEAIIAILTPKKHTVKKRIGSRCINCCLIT
UniProt Q9BRS2: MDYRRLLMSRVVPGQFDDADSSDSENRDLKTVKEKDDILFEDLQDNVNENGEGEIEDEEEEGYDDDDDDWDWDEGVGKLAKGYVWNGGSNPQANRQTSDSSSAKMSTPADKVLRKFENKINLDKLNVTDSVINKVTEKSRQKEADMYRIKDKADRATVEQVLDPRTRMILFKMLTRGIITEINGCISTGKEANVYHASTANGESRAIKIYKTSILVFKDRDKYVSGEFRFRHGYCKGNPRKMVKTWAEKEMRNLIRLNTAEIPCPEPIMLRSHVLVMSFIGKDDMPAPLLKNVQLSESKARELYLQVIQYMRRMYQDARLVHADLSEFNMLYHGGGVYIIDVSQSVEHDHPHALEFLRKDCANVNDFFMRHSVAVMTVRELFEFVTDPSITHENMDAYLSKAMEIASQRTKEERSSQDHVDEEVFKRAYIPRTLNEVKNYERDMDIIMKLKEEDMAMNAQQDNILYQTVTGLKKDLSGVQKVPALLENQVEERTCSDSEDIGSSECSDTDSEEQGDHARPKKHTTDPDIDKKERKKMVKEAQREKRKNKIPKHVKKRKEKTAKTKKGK
UniProt Q6ZS17: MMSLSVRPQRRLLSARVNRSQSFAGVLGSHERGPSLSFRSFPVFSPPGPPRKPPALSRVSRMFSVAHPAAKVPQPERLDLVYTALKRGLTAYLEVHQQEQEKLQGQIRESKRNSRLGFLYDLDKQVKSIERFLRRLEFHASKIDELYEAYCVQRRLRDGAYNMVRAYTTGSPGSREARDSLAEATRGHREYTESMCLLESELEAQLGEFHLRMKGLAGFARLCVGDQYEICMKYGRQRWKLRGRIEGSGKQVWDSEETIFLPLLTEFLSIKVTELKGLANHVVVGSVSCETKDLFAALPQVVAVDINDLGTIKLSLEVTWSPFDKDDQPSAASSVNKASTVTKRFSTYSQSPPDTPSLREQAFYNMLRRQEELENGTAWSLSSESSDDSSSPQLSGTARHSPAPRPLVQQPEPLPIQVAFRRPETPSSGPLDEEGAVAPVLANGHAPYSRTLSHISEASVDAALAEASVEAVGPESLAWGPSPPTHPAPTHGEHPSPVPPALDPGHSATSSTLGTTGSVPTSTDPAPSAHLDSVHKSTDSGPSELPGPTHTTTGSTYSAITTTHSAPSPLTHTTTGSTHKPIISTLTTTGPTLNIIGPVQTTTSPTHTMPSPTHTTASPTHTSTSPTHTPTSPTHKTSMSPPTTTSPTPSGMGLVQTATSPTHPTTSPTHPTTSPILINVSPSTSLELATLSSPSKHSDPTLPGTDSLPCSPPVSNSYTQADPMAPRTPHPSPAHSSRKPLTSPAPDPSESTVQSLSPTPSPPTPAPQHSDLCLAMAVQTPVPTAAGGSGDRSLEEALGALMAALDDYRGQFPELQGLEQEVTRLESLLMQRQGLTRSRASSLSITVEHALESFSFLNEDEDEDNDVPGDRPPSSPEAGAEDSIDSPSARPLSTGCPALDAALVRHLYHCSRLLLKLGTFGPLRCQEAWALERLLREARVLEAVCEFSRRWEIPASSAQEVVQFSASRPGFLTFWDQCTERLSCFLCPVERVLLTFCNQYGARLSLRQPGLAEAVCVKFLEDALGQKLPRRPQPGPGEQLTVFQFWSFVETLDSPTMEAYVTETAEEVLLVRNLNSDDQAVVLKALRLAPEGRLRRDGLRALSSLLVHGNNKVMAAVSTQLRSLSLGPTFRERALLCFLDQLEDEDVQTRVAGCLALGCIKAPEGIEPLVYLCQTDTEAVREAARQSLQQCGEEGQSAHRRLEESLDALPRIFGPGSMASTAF
UniProt Q8N0V3: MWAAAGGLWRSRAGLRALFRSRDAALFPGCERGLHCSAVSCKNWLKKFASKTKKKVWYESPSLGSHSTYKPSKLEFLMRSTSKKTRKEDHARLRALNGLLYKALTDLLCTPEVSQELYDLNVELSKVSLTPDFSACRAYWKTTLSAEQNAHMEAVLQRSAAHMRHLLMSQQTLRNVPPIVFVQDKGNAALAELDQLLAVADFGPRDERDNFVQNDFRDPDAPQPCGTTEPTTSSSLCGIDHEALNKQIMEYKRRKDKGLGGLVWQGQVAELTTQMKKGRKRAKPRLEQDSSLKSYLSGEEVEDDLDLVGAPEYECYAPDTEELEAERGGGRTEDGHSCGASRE
UniProt Q9H6Z4: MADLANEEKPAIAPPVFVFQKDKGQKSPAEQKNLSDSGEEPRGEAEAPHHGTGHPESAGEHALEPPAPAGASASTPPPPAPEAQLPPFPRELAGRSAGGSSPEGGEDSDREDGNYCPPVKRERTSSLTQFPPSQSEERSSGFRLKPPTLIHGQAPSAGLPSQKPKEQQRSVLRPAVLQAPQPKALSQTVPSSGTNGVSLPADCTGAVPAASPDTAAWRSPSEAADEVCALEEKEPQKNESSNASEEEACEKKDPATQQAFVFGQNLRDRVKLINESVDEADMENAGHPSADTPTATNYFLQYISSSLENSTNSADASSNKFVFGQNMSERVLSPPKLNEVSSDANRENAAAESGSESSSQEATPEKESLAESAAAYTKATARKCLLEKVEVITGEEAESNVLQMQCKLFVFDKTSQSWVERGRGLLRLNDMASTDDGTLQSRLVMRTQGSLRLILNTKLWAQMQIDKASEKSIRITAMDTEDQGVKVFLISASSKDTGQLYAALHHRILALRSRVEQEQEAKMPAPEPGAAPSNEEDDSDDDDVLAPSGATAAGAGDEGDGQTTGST
UniProt Q9GZR2: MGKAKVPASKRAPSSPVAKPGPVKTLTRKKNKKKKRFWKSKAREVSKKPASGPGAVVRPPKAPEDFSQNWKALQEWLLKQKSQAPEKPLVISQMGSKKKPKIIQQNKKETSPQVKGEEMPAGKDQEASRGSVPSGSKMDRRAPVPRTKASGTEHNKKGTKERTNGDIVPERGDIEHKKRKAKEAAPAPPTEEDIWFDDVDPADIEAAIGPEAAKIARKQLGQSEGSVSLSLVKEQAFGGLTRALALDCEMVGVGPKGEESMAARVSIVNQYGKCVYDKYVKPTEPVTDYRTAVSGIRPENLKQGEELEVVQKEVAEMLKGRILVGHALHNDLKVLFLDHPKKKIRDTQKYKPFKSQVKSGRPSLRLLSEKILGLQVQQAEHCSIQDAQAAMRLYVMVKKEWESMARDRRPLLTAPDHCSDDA

Compound: ClCC(=O)N[C@H]1CCCc2ccccc12
Assay: log2 mean competition ratio of IA-DTB cysteine labelling (DMSO/compound) (log2 ratio); higher = stronger cysteine engagement by compound
Conditions: 50 µM; treatment time: 4 h; cell line lysate: HEK293T
Method: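 IA-DTB competitive cysteine chemoproteomics in HEK293T RIPA lysate. Lysates were treated with compound 29 or 30 at 50 or 200 µM for 4 h, then IA-DTB (500 µM, 1 h), trypsin-digested, NeutrAvidin-enriched and analysed by diaPASEF. Competition ratio = intensity DMSO / intensity compound (n=4 treated, n=64 DMSO); binding: mean log2 CR ≥ 1 and p ≤ 0.05 plus QC filters. Target is the cysteine site.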

Target | log2 mean competition ratio
RANGAP1 C82 (UniProt P46060) | -0.0151
RANBP2 C348 (UniProt P49792) | 0.0111
RMND5A C4 (UniProt Q9H871) | -0.153
RHOQ C144 (UniProt P17081) | -0.239
RIMOC1 C51 | 0.196
RAI1 C1015 (UniProt Q7Z5J4) | 0.0455
RIF1 C1718 (UniProt Q5UIP0) | 0.143
RIOK1 C264 (UniProt Q9BRS2) | 0.0902
RDH10 C272 (UniProt Q8IZV5) | -0.204
RBX1 C94 (UniProt P62877) | 0.121
RALGAPA2 C1662 (UniProt Q2PPJ7) | -0.14
RIPOR1 C925 (UniProt Q6ZS17) | -0.0721
RBFA C136 (UniProt Q8N0V3) | 0.167
RBM22 C179 (UniProt Q9NW64) | -0.146
RAP1GDS1 C350 (UniProt P52306) | -0.402
RANBP3 C228 (UniProt Q9H6Z4) | -0.316
RBL1 C1047 (UniProt P28749) | -0.583
REXO4 C248 (UniProt Q9GZR2) | -0.0926
RANBP2 C1196 (UniProt P49792) | -0.181
RARS2 C576 (UniProt Q5T160) | 0.189

Same assay, conditions: 200 µM; treatment time: 4 h; cell line lysate: HEK293T

Target | log2 mean competition ratio
RANGAP1 C82 (UniProt P46060) | 0.265
RANBP2 C348 (UniProt P49792) | 0.422
RMND5A C4 (UniProt Q9H871) | 0.0682
RHOQ C144 (UniProt P17081) | -0.00572
RIMOC1 C51 | 0.196
RAI1 C1015 (UniProt Q7Z5J4) | 0.396
RIF1 C1718 (UniProt Q5UIP0) | -0.0307
RIOK1 C264 (UniProt Q9BRS2) | -0.0349
RDH10 C272 (UniProt Q8IZV5) | 0.368
RBX1 C94 (UniProt P62877) | 0.0603
RALGAPA2 C1662 (UniProt Q2PPJ7) | -0.00454
RIPOR1 C925 (UniProt Q6ZS17) | 0.318
RBFA C136 (UniProt Q8N0V3) | 0.0415
RBM22 C179 (UniProt Q9NW64) | 0.0414
RAP1GDS1 C350 (UniProt P52306) | -0.199
RANBP3 C228 (UniProt Q9H6Z4) | -0.151
RBL1 C1047 (UniProt P28749) | 0.0648
REXO4 C248 (UniProt Q9GZR2) | -0.0426
RANBP2 C1196 (UniProt P49792) | 0.591
RARS2 C576 (UniProt Q5T160) | 0.305
